The values below come from patent US20220056087A1.

Sequences of proteins named here, by UniProt entry; tags and fusion partners are left off. Residues count along the entry.
UniProt P08508, residues 31-215: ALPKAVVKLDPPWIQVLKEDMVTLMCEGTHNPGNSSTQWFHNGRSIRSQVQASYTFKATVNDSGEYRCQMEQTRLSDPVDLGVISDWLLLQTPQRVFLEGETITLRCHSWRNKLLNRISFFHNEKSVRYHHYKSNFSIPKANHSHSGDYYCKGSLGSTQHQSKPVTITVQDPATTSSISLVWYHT

In experiment [1] the target is mouse FcγRIIIA (immobilized on CM4 chip) (mouse) (UniProt P08508). As to the kind of experiment: SPR (Biacore) as in Example 4; row 'FcR3a'.
Experiment [2] shares this target. As to the kind of experiment: SPR (Biacore), receptor amine-coupled to CM4 chip. On the technique in general: Surface plasmon resonance follows binding to a sensor surface in real time, without labels.
Experiment [3] has the same target. As to the kind of experiment: SPR (Biacore).
Experiment [4] has the same target. As to the kind of experiment: SPR (Biacore T100), receptor amine-coupled to CM4 chip, analyte 500 nM to 1.9 nM.

Results are given in words; binding and its absence hold for the method and conditions named. Some entries that bind do so weakly or less than the wild type.

B1: M045 F3 (Fc fusion)
stradomer monomer: DEPRGPTIKPCPPCKCPAPNLLGGPSVFIFPPKIKDVLMISLSPIVTCVVVDVSEDDPDVQISWFVNNVEVHTAQTQTHREDYNSTLRVVSALPIQHQDWMSGKEFKCKVNNKDLPAPIERTISKPKGSVRAPQVYVLPPPEEEMTKKQVTLTCMVTDFMPEDIYVEWTNNGKTELNYKNTEPVLDSDGSYFMYSKLRVEKKNWVERNSYSCSVVHEGLHNHHTTKSFSRTPGKERKCCVECPPCP
B1: in experiment [1], the binding entry was “binds”.

B2: M045 F1 (highest molecular weight multimer fraction of M045c) (Fc fusion)
chain: DEPRGPTIKPCPPCKCPAPNLLGGPSVFIFPPKIKDVLMISLSPIVTCVVVDVSEDDPDVQISWFVNNVEVHTAQTQTHREDYNSTLRVVSALPIQHQDWMSGKEFKCKVNNKDLPAPIERTISKPKGSVRAPQVYVLPPPEEEMTKKQVTLTCMVTDFMPEDIYVEWTNNGKTELNYKNTEPVLDSDGSYFMYSKLRVEKKNWVERNSYSCSVVHEGLHNHHTTKSFSRTPGKERKCCVECPPCP
With B2, the binding entry in experiment [1] and in experiment [2] was “binds” in each case.

B3: M045c stradomer (Fc fusion)
chain: DEPRGPTIKPCPPCKCPAPNLLGGPSVFIFPPKIKDVLMISLSPIVTCVVVDVSEDDPDVQISWFVNNVEVHTAQTQTHREDYNSTLRVVSALPIQHQDWMSGKEFKCKVNNKDLPAPIERTISKPKGSVRAPQVYVLPPPEEEMTKKQVTLTCMVTDFMPEDIYVEWTNNGKTELNYKNTEPVLDSDGSYFMYSKLRVEKKNWVERNSYSCSVVHEGLHNHHTTKSFSRTPGKERKCCVECPPCP
As for B3, the binding entry in experiment [1], in experiment [3] and in experiment [4] was “binds” each time.

B4: M045 F2 (Fc fusion)
stradomer monomer: DEPRGPTIKPCPPCKCPAPNLLGGPSVFIFPPKIKDVLMISLSPIVTCVVVDVSEDDPDVQISWFVNNVEVHTAQTQTHREDYNSTLRVVSALPIQHQDWMSGKEFKCKVNNKDLPAPIERTISKPKGSVRAPQVYVLPPPEEEMTKKQVTLTCMVTDFMPEDIYVEWTNNGKTELNYKNTEPVLDSDGSYFMYSKLRVEKKNWVERNSYSCSVVHEGLHNHHTTKSFSRTPGKERKCCVECPPCP
For B4, in experiment [1], the binding result is given as “binds”.

B5: M019 stradomer (Fc fusion)
chain: ERKCCVECPPCPEPRGPTIKPCPPCKCPAPNLLGGPSVFIFPPKIKDVLMISLSPIVTCVVVDVSEDDPDVQISWFVNNVEVHTAQTQTHREDYNSTLRVVSALPIQHQDWMSGKEFKCKVNNKDLPAPIERTISKPKGSVRAPQVYVLPPPEEEMTKKQVTLTCMVTDFMPEDIYVEWTNNGKTELNYKNTEPVLDSDGSYFMYSKLRVEKKNWVERNSYSCSVVHEGLHNHHTTKSFSRTPGK
Take B5: the binding result in experiment [3] and in experiment [4] was “binds” throughout.
